No constants are given. Whether binding was seen depends on the method and setting. Some entries that bind do so weakly or less than the wild type.

In this assay the target is T1, Apoptotic Protease Activating Factor 1 (APAF1), endogenous (human (endogenous in U2OS)), O14727.
T1 chain: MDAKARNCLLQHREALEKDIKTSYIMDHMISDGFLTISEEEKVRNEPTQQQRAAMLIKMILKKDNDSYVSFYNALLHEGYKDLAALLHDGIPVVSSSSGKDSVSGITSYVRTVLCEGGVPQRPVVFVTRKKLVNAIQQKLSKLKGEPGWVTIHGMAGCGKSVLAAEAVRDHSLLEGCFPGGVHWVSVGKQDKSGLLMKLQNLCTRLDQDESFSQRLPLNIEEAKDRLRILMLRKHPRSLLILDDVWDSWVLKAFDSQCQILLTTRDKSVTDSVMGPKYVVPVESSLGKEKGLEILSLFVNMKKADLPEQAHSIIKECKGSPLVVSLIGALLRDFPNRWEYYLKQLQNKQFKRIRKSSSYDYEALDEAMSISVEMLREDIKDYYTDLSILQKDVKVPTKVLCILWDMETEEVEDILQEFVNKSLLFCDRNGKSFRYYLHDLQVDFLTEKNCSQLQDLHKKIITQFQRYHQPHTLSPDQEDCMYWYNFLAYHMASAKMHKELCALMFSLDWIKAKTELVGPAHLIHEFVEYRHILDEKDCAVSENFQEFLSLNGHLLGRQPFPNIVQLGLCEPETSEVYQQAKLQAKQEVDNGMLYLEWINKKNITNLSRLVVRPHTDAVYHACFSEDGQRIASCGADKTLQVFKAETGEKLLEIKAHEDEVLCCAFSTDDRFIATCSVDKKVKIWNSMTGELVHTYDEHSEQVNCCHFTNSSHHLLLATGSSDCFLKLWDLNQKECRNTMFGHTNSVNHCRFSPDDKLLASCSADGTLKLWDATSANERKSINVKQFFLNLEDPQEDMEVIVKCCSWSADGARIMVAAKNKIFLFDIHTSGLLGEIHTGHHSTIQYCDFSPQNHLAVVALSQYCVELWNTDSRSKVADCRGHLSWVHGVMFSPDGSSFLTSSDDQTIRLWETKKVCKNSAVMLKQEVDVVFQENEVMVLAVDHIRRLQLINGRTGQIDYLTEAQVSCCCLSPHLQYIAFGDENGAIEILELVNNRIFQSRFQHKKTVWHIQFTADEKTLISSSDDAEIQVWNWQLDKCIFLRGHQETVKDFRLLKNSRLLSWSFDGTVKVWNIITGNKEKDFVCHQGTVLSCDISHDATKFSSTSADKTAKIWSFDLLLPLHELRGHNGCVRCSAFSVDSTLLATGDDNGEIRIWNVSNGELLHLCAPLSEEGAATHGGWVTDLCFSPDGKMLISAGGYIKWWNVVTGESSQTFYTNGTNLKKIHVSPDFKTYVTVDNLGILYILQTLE
As to the kind of experiment: sucrose gradient centrifugation. Conditions: remark: other sources report otherwise.

B1: Apoptotic Protease Activating Factor 1 (APAF1), endogenous, O14727 1-1248 (protein)
chain: T1 chain
For B1, the binding entry is “binds”.

The values above are taken from doi:10.1101/583864.
